PubChem BioAssay AID2685 (National Center for Advancing Translational Sciences (NCATS), 2010)
This is one part of the list. Further columns of the screen follow, without active or inactive calls. Most of these compounds were active or inconclusive in the main read-out, so they are no random draw. Potencies come from curve fits of mixed quality, noted in brackets.

Test: qHTS Assay for Lipid Storage Modulators in Drosophila S3 Cells;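 as to cell number change: cells counted by Cell Tracker Red CMTPX staining in the red channel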
Settings: BODIPY lipid droplet fluorescence, 18-24 h; for cell number change: measured here: cell count max response, cells fed with added oleic acid
Outline: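 Laser-scanning cytometry quantifies lipid droplet accumulation (500–530 nm total intensity; droplet/cell object ratio) in oleic acid-fed (400 uM added) Drosophila S3 cells treated with a concentration series. 20 uM Triacsin C defined 100% inhibition.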

[1] = measured here: cell number channel AC50, cells fed with added oleic acid
[2] = measured here: lipid fluorescence (Fed channel) AC50, cells fed with added oleic acid

| SMILES | cell number change [%] | AC50 [1] | AC50 [2] |
| --- | --- | --- | --- |
| CCC1(C)CC(C(CC(=O)O)c2ccc(C)cc2)CCO1 (stereo unspecified) | -72.6 | 8.2 µM [falling, partial curve] |  |
| COc1ccc(OCCCC(=O)OCC(=O)Nc2ccc(Cl)cn2)cc1 | -12.1 |  | 4.11 µM [rising, single point] |
| CC(NCCOCCOc1ccccc1)c1ccccc1 (stereo unspecified) | 98.6 | 29.1 µM [rising, single point] | 0.092 µM [falling, full curve, poor fit] |
| CCOC(=O)N1CCN(c2ccc(C(C)=O)cc2F)CC1 | -34.5 | 32.6 µM [falling, single point] | 23.1 µM [falling, partial curve] |
| O=C1c2cccc3cccc(c23)C(=O)N1CC1CCN(CC(O)COCc2ccc3c(c2)OCO3)CC1 (stereo unspecified) | 5.61 | 0.326 µM [rising, partial curve, poor fit] |  |
| CC1CCCCN1C(=O)N[C@@H](Cc1ccccc1)C(=O)O (stereo partly specified) | 20.1 | 3.26 µM [rising, partial curve] |  |
| Cc1cc(C)n(-c2nnc(C)n2/N=C/c2ccco2)n1 | -47 | 0.82 µM [falling, full curve, poor fit] | 8.2 µM [falling, partial curve, poor fit] |
| COc1ccc(-n2nc3c(c2NC(=O)c2ccc4c(c2)OCO4)CS(=O)(=O)C3)cc1 | 7.08 |  | 14.6 µM [rising, partial curve, poor fit] |
| COc1ccc(-c2noc(CCC(=O)NCCN(C)Cc3ccccc3)n2)cc1 | 51.4 | 18.4 µM [rising, single point] | 6.51 µM [falling, single point] |
| CCCC(C)NC(=O)CSc1nnc(-c2c[nH]c3ccccc23)o1 (stereo unspecified) | 46.4 | 0.116 µM [rising, full curve, poor fit] |  |
| O=C(CSc1nnc2ccccn12)Nc1ccc2c(c1)OCO2 | 6.84 |  | 29.1 µM [rising, single point] |
| COc1ccc(CN(C)CC(=O)N2CCc3ccccc3C2)cc1 | -0.451 |  |  |
| Cn1nnc2cc(C(=O)NCc3ccco3)ccc21 | 0.0475 |  | 1.64 µM [falling, partial curve] |
| CC(NC(=O)CSc1nc2c(c(C(F)(F)F)n1)CCc1ccccc1-2)c1ccccc1 (stereo unspecified) | -12 |  | 29.1 µM [falling, single point] |
| COc1cccc(C(=O)N2CCN(Cc3ccco3)CC2)c1OC | 10.5 | 2.06 µM [falling, partial curve] | 6.51 µM [falling, single point] |
| COc1ccc(CCNC(=O)c2ccc(CS(=O)Cc3ccc(C)cc3)o2)cc1OC (stereo unspecified) |  |  | 6.51 µM [falling, single point] |
| Cc1ccc(S(=O)(=O)N2CCN(C(=O)CC(C)n3nc(C)c(Cl)c3C)CC2)cc1 (stereo unspecified) | 5.65 |  |  |
| O=C(CSc1nnc(-c2ccccc2)c(-c2ccccc2)n1)N1CCOCC1 | 47 | 3.26 µM [rising, partial curve] | 2.31 µM [rising, partial curve] |

Part of the list above in order of formula weight, smallest number first:

| SMILES | cell number change [%] | AC50 [1] | AC50 [2] |
| --- | --- | --- | --- |
| O=C(CSc1nnc(-c2ccccc2)c(-c2ccccc2)n1)N1CCOCC1 | 47 | 3.26 µM [rising, partial curve] | 2.31 µM [rising, partial curve] |
| COc1ccc(-n2nc3c(c2NC(=O)c2ccc4c(c2)OCO4)CS(=O)(=O)C3)cc1 | 7.08 |  | 14.6 µM [rising, partial curve, poor fit] |
| Cc1ccc(S(=O)(=O)N2CCN(C(=O)CC(C)n3nc(C)c(Cl)c3C)CC2)cc1 (stereo unspecified) | 5.65 |  |  |

(cont.)

| SMILES | cell number change [%] | AC50 [1] | AC50 [2] |
| --- | --- | --- | --- |
| Cc1ccc(CN2CCNC(=O)C2CC(=O)NCc2csc(C(C)C)n2)cc1 (stereo unspecified) | 25.2 |  | 8.2 µM [rising, partial curve, poor fit] |
| CC1CCN(C(=O)Cn2nnc(-c3ccc(N)cc3)n2)CC1 | -14.3 |  | 6.51 µM [rising, single point] |
| CCc1ccc([C@@H]2CC=C(C(=O)O)[C@H](c3ccccc3)N2S(=O)(=O)c2ccc(C)cc2)cc1 | 18 |  | 3.26 µM [rising, partial curve] |
| COc1ccc(C(=O)N/N=C/c2c(C)[nH]c(=O)[nH]c2=O)cc1 | -5.15 | 0.103 µM [falling, full curve, poor fit] |  |
| N#CC(C#N)=C1C(=O)N(CCN2CCCCC2)c2ccccc21 | 14.7 |  | 6.51 µM [falling, single point] |
| Cc1ccc(Cl)cc1NC(=O)c1cc2ccccc2cc1O | -58.9 | 16.4 µM [falling, single point] | 14.6 µM [falling, partial curve] |
| CCc1cc(=O)oc2cc(OCC(=O)NC3CC(C)(C)NC(C)(C)C3)ccc12 |  |  | 29.1 µM [rising, single point] |
| COC(=O)c1cccc(NC(=O)CN2CCN(Cc3ccccc3)CC2)c1 | 7.19 |  | 29.1 µM [rising, single point] |
| CC(C)c1cccc(C(C)C)c1NC(=O)CCN1C(=O)NC2(CCCC2)C1=O | 10.9 | 1.03 µM [rising, full curve, poor fit] | 6.51 µM [rising, single point] |
| COc1ccc(CCN2CN(S(=O)(=O)c3ccccc3)c3nc4ccccc4nc32)cc1OC | -0.427 |  | 0.366 µM [rising, full curve, poor fit] |
| O=C(Cn1ncc2c1-c1ccccc1OC2)N1CCN(Cc2ccccc2)CC1 | 23.2 |  | 6.51 µM [rising, partial curve, poor fit] |
| COc1ccc(N2C(=O)C(Cl)=C(Nc3ccccc3O)C2=O)cc1 | 20 |  | 0.13 µM [falling, full curve, poor fit] |
| CC1C(C#N)=C(N)OC2=C1C(=O)CC(C)(C)C2 (stereo unspecified) | 11.4 | 0.13 µM [rising, full curve, poor fit] |  |
| CN1CCN(C(=O)N2c3ccccc3C=Cc3ccccc32)CC1 | 3.77 |  | 0.326 µM [rising, partial curve, poor fit] |
| COc1cc2nc(-c3ccc(Br)o3)oc(=O)c2cc1OC | -28.8 |  | 0.116 µM [rising, single point] |
| Cc1ccc(-n2nc(CN3CCOCC3)c(-c3ccccc3)c2N)cc1Cl | 20.2 |  | 0.058 µM [rising, full curve, poor fit] |
| Cc1cccnc1NC(=O)CSc1ncnc2sc(C)c(C)c12 | 29.7 |  |  |
| CSCc1nc2scc(-c3ccccc3)c2c(=O)[nH]1 | 87.3 | 29.1 µM [rising, single point] | 29.1 µM [rising, single point] |
